# From PubChem BioAssay AID328 (DTP/NCI, 2004)
# The list does not hold the whole screen: it gathers tests that were run many times, whatever their T/C, doses with no T/C, and many T/C values between a quarter and a half above the control. Other doses and runs of a compound stand elsewhere. T/C is the treated group as % of the vehicle group. Some entries give survivors of the animals treated and no T/C: the source holds a T/C of zero for them, seemingly a mark for toxic or unscored doses. Some survivor counts are full or nearly so, which does not show that the dose was tolerated: survival well below the control is almost never listed, so the zero probably covers shortened survival too. Counts of survivors are from the toxicity check (mostly the fifth day) where no day follows; animals may have died later. Schedules are NCI's codes, taken here to give the interval after Q, in days (D) or hours (H), and the number of doses after X. Some entries hold several experiments; their values stand side by side, smallest first. For survival time, this PubChem deposit counts one and a half times the control or more as active, and values a quarter to a half above the control carry no call in these data; other NCI protocols may use other cut-offs. Some T/C values carry the count of animals alive at the toxicity check (mostly the fifth day); where none is given, no animal had died by that day.
# Test system: BDF1 mice, P388 leukemia ip, median survival T/C
# Test: NCI In Vivo Anticancer Drug Screen. Data for tumor model P388 Leukemia (intraperitoneal) in B6D2F1 (BDF1) mice
# Conditions: T/C endpoint: median survival time, higher T/C = longer survival
# In short: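 Each value expresses how treatment altered survival: treated-mouse outcome over vehicle-mouse outcome, both groups bearing the transplanted tumour.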
# [1] = dose: 100.0 mg/kg/injection, schedule: Q01DX009 (ip), vehicle: saline with Tween-80
smiles,measurement,setting,value
O=C1NC(=O)C([N+](=O)[O-])=C(O)C1=O,T/C,"dose: 2.0 mg/kg/injection, schedule: Q01DX009 (ip), vehicle: saline with Tween-80",125 % of control
same,T/C,"dose: 35.0 mg/kg/injection, schedule: Q01DX009 (ip), vehicle: saline with Tween-80",125 % of control
same,T/C,"dose: 50.0 mg/kg/injection, schedule: Q04DX003 (ip), vehicle: saline",136 % of control
same,T/C,"dose: 70.0 mg/kg/injection, schedule: Q01DX009 (ip), vehicle: saline with Tween-80",130 % of control
CCCCCCCCCCCCS(=O)(=O)O,T/C,"dose: 12.5 mg/kg/injection, schedule: Q01DX009 (ip), vehicle: saline with Tween-80",136 % of control
same,T/C,"dose: 25.0 mg/kg/injection, schedule: Q01DX009 (ip), vehicle: saline with Tween-80",127 % of control
same,survivor count,"dose: 50.0 mg/kg/injection, schedule: Q01DX009 (ip), vehicle: saline with Tween-80",3 of 6 and 6 of 6
same,survivor count,[1],0 of 6
same,survivor count,"dose: 200.0 mg/kg/injection, schedule: Q01DX009 (ip), vehicle: saline with Tween-80",0 of 6
CC1(C)N=C(N)N=C(N)N1c1cccc(CC(=O)Nc2ccc(S(=O)(=O)F)cc2)c1,T/C,"dose: 66.0 mg/kg/injection, schedule: Q01DX009 (ip), vehicle: saline with Tween-80",127 % of control
same,T/C,[1],140 % of control [5 of 6 alive]
same,survivor count,"dose: 150.0 mg/kg/injection, schedule: Q01DX009 (ip), vehicle: saline with Tween-80",0 of 6
same,survivor count,"dose: 400.0 mg/kg/injection, schedule: Q01DX009 (ip), vehicle: saline with Tween-80",4 of 6
Cc1ccc(S(=O)(=O)OCCN(CCOS(=O)(=O)c2ccc(C)cc2)c2cc(OCc3ccccc3)cc(OCc3ccccc3)c2)cc1,survivor count,"dose: 25.0 mg/kg/injection, schedule: Q01DX009 (ip), vehicle: water",5 of 6
same,survivor count,"dose: 50.0 mg/kg/injection, schedule: Q01DX009 (ip), vehicle: water",6 of 6
same,survivor count,"dose: 200.0 mg/kg/injection, schedule: Q01DX009 (ip), vehicle: water",6 of 6
same,survivor count,"dose: 400.0 mg/kg/injection, schedule: Q01DX009 (ip), vehicle: water",6 of 6
Cn1c(O)c(C=N)c(=O)[nH]c1=O,survivor count,"dose: 200.0 mg/kg/injection, schedule: Q01DX009 (ip), vehicle: saline",6 of 6
COc1ccc(CC(=O)NCCc2ccccc2)cc1OC,survivor count,"dose: 200.0 mg/kg/injection, schedule: Q04DX003 (ip), vehicle: saline with Tween-80",1 of 6
same,survivor count,"dose: 400.0 mg/kg/injection, schedule: Q04DX003 (ip), vehicle: saline with Tween-80",0 of 6
O=C1C=C2C(=CCOC2O)O1 (configuration not stated),T/C,"dose: 0.3 mg/kg/injection, schedule: Q01DX009 (ip), vehicle: other",131 % of control
same,T/C,"dose: 1.0 mg/kg/injection, schedule: Q01DX009 (ip), vehicle: other",141 % of control
same,survivor count,"dose: 10.0 mg/kg/injection, schedule: Q01DX009 (ip), vehicle: other",0 of 6
c1ccc(SCN2CCN(CSc3ccccc3)CC2)cc1,survivor count,"dose: 25.0 mg/kg/injection, schedule: Q01DX001 (ip), vehicle: saline",6 of 6
CCOC(=S)SCc1cc(C(C)(C)C)c(O)c(C(C)(C)C)c1,T/C,"dose: 400.0 mg/kg/injection, schedule: Q04DX002 (ip), vehicle: saline with Tween-80",128 % of control
COC(=O)c1ccc(C(=O)O)[n+]([O-])c1,survivor count,"dose: 50.0 mg/kg/injection, schedule: Q01DX009 (ip), vehicle: Klucel (hydroxypropylcellulose) (HPC)",6 of 6
same,survivor count,"dose: 100.0 mg/kg/injection, schedule: Q01DX009 (ip), vehicle: Klucel (hydroxypropylcellulose) (HPC)",6 of 6
same,survivor count,"dose: 100.0 mg/kg/injection, schedule: Q04DX003 (ip), vehicle: Klucel (hydroxypropylcellulose) (HPC)",6 of 6
same,survivor count,"dose: 400.0 mg/kg/injection, schedule: Q01DX009 (ip), vehicle: Klucel (hydroxypropylcellulose) (HPC)",6 of 6
CCCCn1cnc2c(=S)nc(N)[nH]c21,T/C,"dose: 75.0 mg/kg/injection, schedule: Q04DX003 (ip), vehicle: saline with Tween-80",125 % of control
C[C@]12CC[C@H]3[C@@H](CCC4=C[C@@H](OC5OCC(OC6OC(CO)C(O)C(O)C6O)C(O)C5O)CC[C@@]43C=O)[C@@]1(O)CCC2C1=CC(=O)OC1 (some centres not stated),T/C,"dose: 1.25 mg/kg/injection, schedule: Q01DX009 (ip), vehicle: saline",133 % of control
CCSc1ncc2cnccn12,T/C,"dose: 3.0 mg/kg/injection, schedule: Q01DX009 (ip), vehicle: water, evaluated on day 21",101 % of control
same,T/C,"dose: 3.0 mg/kg/injection, schedule: Q01DX009 (ip), vehicle: water, evaluated on day 30","98, 109, 126 % of control"
same,survivor count,"dose: 8.0 mg/kg/injection, schedule: Q01DX009 (ip), vehicle: water",4 of 6
same,survivor count,"dose: 25.0 mg/kg/injection, schedule: Q04DX003 (ip), vehicle: water",4 of 6
same,survivor count,"dose: 50.0 mg/kg/injection, schedule: Q04DX003 (ip), vehicle: water",0 of 6
same,survivor count,"dose: 100.0 mg/kg/injection, schedule: Q04DX003 (ip), vehicle: water",0 of 6
